Assay results taken from PMC5562876, “The integration of Gβ and MAPK signaling cascade in zygote development” (Scientific Reports, 2017).
No constants are given. Whether binding was seen depends on the method and setting. For part of these data: In cells and extracts the contact can be indirect. Some results given as binding are weak or reduced against the parent protein; the word gives no strength. For part of these data: Sequences can lack the tags named with a protein.

Sequences of proteins named here, by UniProt entry; tags and fusion partners are left off.
UniProt Q39026: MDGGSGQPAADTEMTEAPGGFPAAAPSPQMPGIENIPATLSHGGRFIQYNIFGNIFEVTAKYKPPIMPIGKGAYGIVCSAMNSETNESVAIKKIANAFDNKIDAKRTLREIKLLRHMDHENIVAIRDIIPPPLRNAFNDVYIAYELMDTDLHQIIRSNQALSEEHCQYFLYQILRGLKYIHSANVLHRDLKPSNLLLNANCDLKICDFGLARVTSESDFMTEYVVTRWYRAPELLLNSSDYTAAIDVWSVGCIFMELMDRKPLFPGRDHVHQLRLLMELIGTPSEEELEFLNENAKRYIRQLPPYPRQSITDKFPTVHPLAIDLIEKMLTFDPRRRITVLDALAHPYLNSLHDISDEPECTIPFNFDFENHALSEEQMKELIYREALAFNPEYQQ

T1: MKK5 (purified, pull-down) (Arabidopsis thaliana, UniProt Q8RXG3 1-348)
T1 construct: MKK5, MAP kinase kinase 5, Arabidopsis thaliana, At3G21220; source: E. coli, purified (glutathione agarose beads)
T1 sequence (looked up): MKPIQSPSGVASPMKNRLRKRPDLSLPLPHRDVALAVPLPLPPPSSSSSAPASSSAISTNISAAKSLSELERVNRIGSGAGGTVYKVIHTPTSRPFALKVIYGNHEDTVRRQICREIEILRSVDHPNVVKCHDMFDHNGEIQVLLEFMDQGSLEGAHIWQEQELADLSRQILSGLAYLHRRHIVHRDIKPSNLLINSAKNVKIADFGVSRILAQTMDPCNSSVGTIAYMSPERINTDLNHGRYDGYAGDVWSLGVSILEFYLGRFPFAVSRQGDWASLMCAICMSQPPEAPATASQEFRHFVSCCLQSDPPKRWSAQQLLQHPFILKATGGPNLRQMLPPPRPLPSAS

T2: MKK4 (purified, pull-down) (Arabidopsis thaliana, UniProt O80397 1-366)
T2 construct: MKK4, MAP kinase kinase 4, Arabidopsis thaliana, At1G51660; source: E. coli, purified (glutathione agarose beads)
T2 sequence (looked up): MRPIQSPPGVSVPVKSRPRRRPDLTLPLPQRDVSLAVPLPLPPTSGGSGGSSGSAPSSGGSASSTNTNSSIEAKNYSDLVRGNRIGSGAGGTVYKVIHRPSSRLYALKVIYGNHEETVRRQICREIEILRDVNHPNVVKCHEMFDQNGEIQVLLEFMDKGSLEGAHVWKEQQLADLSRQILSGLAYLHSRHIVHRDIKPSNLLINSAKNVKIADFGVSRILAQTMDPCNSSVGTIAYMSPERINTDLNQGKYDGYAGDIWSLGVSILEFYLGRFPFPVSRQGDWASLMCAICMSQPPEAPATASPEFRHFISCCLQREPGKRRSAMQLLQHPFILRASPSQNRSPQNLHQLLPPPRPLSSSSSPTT

T3: MPK3-nLUC (Arabidopsis thaliana) (UniProt Q39023)
T3 sequence: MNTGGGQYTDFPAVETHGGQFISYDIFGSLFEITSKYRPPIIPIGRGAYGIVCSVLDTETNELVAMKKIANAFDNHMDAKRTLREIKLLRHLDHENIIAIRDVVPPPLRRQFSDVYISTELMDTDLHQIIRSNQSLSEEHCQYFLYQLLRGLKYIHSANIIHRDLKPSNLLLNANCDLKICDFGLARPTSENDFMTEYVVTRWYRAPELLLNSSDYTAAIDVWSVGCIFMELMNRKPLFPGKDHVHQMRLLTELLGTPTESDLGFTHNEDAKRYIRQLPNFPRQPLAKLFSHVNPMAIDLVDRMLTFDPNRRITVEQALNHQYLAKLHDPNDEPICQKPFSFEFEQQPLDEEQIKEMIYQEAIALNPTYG

T4: MKK4-nLUC (Arabidopsis thaliana) (UniProt O80397)
T4 sequence: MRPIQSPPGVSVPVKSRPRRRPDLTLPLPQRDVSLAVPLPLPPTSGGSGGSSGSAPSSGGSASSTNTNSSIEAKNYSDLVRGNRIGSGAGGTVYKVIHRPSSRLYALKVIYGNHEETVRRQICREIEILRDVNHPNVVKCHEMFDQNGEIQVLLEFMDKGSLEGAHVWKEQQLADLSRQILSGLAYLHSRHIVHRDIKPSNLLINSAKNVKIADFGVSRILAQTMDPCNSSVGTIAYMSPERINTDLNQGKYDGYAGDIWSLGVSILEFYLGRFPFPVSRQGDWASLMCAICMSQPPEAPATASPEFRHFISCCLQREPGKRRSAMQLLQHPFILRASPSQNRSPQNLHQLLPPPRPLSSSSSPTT

T5: MKK5-nLUC (Arabidopsis thaliana) (UniProt Q8RXG3)
T5 sequence: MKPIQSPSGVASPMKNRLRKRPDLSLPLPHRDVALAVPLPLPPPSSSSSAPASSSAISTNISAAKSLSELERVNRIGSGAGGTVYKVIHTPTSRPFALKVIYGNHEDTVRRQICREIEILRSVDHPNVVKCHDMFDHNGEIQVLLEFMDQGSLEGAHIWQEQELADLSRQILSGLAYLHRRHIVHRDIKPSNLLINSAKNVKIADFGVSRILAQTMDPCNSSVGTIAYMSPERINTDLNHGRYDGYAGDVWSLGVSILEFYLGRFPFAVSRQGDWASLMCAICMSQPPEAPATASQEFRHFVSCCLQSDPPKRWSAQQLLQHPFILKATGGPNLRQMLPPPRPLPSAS

T6: YDA-Kinase-nLUC (Arabidopsis thaliana) (UniProt Q9CAD5)
T6 sequence: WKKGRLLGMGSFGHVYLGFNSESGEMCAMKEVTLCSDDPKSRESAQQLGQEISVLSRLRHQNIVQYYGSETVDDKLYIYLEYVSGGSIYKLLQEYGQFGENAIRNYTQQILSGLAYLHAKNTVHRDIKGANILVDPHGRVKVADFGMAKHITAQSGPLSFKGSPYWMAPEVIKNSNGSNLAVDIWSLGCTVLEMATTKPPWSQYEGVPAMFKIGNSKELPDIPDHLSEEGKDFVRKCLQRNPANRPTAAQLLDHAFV

T7: YDA-nLUC (Arabidopsis thaliana) (UniProt Q9CAD5)
T7 sequence: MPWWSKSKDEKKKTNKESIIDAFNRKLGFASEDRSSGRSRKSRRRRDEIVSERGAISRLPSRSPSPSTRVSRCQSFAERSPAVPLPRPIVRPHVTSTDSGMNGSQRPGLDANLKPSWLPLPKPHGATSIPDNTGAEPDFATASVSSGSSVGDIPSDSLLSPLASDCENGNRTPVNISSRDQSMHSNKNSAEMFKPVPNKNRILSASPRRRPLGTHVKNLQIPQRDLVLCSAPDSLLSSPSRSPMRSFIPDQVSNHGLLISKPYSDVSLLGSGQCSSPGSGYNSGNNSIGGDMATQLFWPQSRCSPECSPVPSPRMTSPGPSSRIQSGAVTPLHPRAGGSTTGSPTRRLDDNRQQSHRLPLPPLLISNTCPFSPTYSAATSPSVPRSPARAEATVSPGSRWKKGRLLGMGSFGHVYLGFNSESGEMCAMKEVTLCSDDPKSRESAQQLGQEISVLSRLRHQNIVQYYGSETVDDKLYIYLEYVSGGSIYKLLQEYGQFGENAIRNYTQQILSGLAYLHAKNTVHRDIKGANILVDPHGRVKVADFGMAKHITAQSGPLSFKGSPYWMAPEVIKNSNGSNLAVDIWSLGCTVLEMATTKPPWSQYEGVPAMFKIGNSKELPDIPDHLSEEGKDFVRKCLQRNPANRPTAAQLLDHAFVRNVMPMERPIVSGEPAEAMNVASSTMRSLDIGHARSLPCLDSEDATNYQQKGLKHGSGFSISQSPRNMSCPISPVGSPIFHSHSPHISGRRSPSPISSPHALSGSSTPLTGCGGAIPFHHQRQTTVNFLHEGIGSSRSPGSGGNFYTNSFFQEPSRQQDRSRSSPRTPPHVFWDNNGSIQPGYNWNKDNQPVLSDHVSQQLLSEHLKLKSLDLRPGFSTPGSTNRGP

T8: nLUC-YDA-Δ334 (Arabidopsis thaliana) (UniProt Q9CAD5)
T8 sequence: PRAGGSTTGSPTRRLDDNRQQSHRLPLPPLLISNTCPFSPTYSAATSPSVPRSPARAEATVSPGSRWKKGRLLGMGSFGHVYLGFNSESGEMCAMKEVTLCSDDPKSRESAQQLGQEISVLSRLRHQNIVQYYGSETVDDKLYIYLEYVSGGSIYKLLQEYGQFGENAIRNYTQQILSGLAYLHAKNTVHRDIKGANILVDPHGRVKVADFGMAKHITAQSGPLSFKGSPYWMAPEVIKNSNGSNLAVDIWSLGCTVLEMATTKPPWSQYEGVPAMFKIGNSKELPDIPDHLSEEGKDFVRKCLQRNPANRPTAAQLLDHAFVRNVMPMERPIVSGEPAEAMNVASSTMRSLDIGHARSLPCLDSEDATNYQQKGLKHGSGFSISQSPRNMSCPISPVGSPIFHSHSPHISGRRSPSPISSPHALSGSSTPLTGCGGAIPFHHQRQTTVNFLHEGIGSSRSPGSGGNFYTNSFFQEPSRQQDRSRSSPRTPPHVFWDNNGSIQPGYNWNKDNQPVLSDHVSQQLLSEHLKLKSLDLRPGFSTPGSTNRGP


Legend:
[1] = molecular target: T1, MKK5 (purified, pull-down); test: pull-down; purified fusion proteins from E. coli incubated with glutathione agarose beads, 25 mM Tris-HCl pH 7.5, 100 mM NaCl, 1 mM DTT, 1 hr; seven washes with 0.1% Triton X-100; eluted with 15 mM GSH; immunoblot; both purified
[2] = molecular target: T2, MKK4 (purified, pull-down); test: as above
[3] = molecular target: T3, MPK3-nLUC (Arabidopsis thaliana); test: split reporter; firefly luciferase complementation imaging; 35S-driven nLUC and cLUC constructs co-infiltrated by agrobacterium GV3101 into N. benthamiana leaves, 3 days at 22 °C, CCD imaging
[4] = molecular target: T4, MKK4-nLUC (Arabidopsis thaliana); test: as above
[5] = molecular target: T5, MKK5-nLUC (Arabidopsis thaliana); test: as above
[6] = molecular target: T6, YDA-Kinase-nLUC (Arabidopsis thaliana); test: as above
[7] = molecular target: T7, YDA-nLUC (Arabidopsis thaliana); test: as above
[8] = molecular target: T8, nLUC-YDA-Δ334 (Arabidopsis thaliana); test: as above
[9] = molecular target: MPK6-nLUC (Arabidopsis thaliana) (UniProt Q39026); test: as above

binding [1]	binding [2]	binding [3]	binding [4]	binding [5]	binding [6]	binding [7]	binding [8]	binding [9]	Binder
no binding	no binding								GPA1 (purified, pull-down) (natural protein, Arabidopsis thaliana, UniProt P18064 1-383, looked up, GPA1, G protein alpha subunit, Arabidopsis thaliana, At2G26300; fusion protein; also called WtGPA1; source: E. coli, purified (glutathione agarose beads)) MGLLCSRSRHHTEDTDENTQAAEIERRIEQEAKAEKHIRKLLLLGAGESGKSTIFKQIKLLFQTGFDEGELKSYVPVIHANVYQTIKLLHDGTKEFAQNETDSAKYMLSSESIAIGEKLSEIGGRLDYPRLTKDIAEGIETLWKDPAIQETCARGNELQVPDCTKYLMENLKRLSDINYIPTKEDVLYARVRTTGVVEIQFSPVGENKKSGEVYRLFDVGGQRNERRKWIHLFEGVTAVIFCAAISEYDQTLFEDEQKNRMMETKELFDWVLKQPCFEKTSFMLFLNKFDIFEKKVLDVPLNVCEWFRDYQPVSSGKQEIEHAYEFVKKKFEELYYQNTAPDRVDRVFKIYRTTALDQKLVKKTFKLVDETLRRRNLLEAGLL
		binds	binds	binds	no binding	no binding	no binding	binds	cLUC-AGB1 (protein, UniProt P49177 1-377) MSVSELKERHAVATETVNNLRDQLRQRRLQLLDTDVARYSAAQGRTRVSFGATDLVCCRTLQGHTGKVYSLDWTPERNRIVSASQDGRLIVWNALTSQKTHAIKLPCAWVMTCAFSPNGQSVACGGLDSVCSIFSLSSTADKDGTVPVSRMLTGHRGYVSCCQYVPNEDAHLITSSGDQTCILWDVTTGLKTSVFGGEFQSGHTADVLSVSISGSNPNWFISGSCDSTARLWDTRAASRAVRTFHGHEGDVNTVKFFPDGYRFGTGSDDGTCRLYDIRTGHQLQVYQPHGDGENGPVTSIAFSVSGRLLFAGYASNNTCYVWDTLLGEVVLDLGLQQDSHRNRISCLGLSADGSALCTGSWDSNLKIWAFGGHRRVI
